Source: article PMC8429893, “CTP regulates membrane-binding activity of the nucleoid occlusion protein Noc” (Molecular Cell, 2021)
No constants are given. Whether binding was seen depends on the method and setting.

Target: Geobacillus thermoleovorans NocΔCTD (Geobacillus thermoleovorans)
Experiment: crystal structure; G. thermoleovorans NocΔCTD, premixed with 1 mM CTP and 1 mM MgCl2 (no CTP in the density), 2.5 Å, space group P2(1)3, two copies per asymmetric unit; both purified

binding: no binding
Substance: Geobacillus thermoleovorans NocΔCTD (from UniProt A0ABF7PFW1 46-284) (domain or fragment)
